According to PubChem BioAssay AID624297 (National Center for Advancing Translational Sciences (NCATS), 2012):
“And” between values parts separate entries of the source, which are not always exact repeats. Identical values can stand only once. Out of some 340,000 compounds screened, about 6,200 (1.8%) were called active. The inconclusive results got no clear call from the source; some entries with a clear call stand among them for comparison. The call rests on the fitted dose curve; in most records, active means well fitted activation curve with a large enough effect; inconclusive means small, poorly fitted or top-dose-only effect; inactive means no such curve, though single readings can be large or run the other way. Where the call is inconclusive, the potency comes from a doubtful curve fit.

Assay: A quantitative high throughput screen for small molecules that induce DNA re-replication in SW480 colon adenocarcinoma cells. Further: nearly all actives have a fitted effect of over 55% in size. On re-replication activation: % of control where 0% means no effect.
Conditions: Hoechst DNA content imaging, 48 h; re-replication activation: at 46.1 µM (top of the series)
Method in brief: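 Image-based DNA-content assay: after two days of treatment, nuclei were labelled with the DNA dye Hoechst and imaged, and hits were compounds raising the count of nuclei showing high fluorescence intensity.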
Potency means the concentration at half of the fitted maximal effect.

**Q.** With `CC(C)(C)c1cc(O)ccc1O` as the molecule, how does the Potency read?
**A.** The Potency was inconclusive: 11.9 µM [activator, single point].

**Q.** For `COc1ccc(NC2=NCC(C)S2)cc1` (stereo not drawn), which Potency is on record?
**A.** The Potency was inconclusive: 2.91 µM [activator, partial curve, poor fit].

**Q.** Which Potency does the source give for `CC1CC=CCC12C(=O)NC(=S)NC2=O` (stereo not drawn) here?
**A.** Its Potency is “inactive”.

**Q.** For `Cc1cccc(CNCCc2c[nH]c3ccccc23)c1`, which Potency is on record?
**A.** Its Potency is inconclusive: 18.4 µM [activator, single point].

**Q.** Which Potency does the source give for `Cc1ccc2c(Cl)cc(Cl)c(O)c2n1` here?
**A.** The Potency was active: 10.3 µM.

**Q.** Which re-replication activation does the source give for `COC(=O)C1=C(c2ccc(OC)c(OC)c2)C[C@@H]2CC[C@H]1N2C(=O)N1CCC(O)CC1` here?
**A.** The re-replication activation was inactive: -47% [at 9.22 µM].

**Q.** For `CN(C)C(=O)Oc1ccc(OCc2n(C)c3ccccc3[n+]2C)cc1`, which Potency is on record?
**A.** Its Potency is active: 16.4 µM.

**Q.** With `CCCCCn1c(=O)c(C(=O)NCc2ccccc2Cl)c(O)c2ccccc21` as the molecule, how does the Potency read?
**A.** The Potency was “inactive”.

**Q.** With `O=C(O)Cn1cc(/C=C2\C(=O)NC(=O)N(Cc3ccco3)C2=O)c2ccccc21` as the molecule, how does the Potency read?
**A.** Its Potency is inconclusive: 0.146 µM [activator, full curve, poor fit].

**Q.** For `COc1ccc(CCNC(=O)c2c(N)n(CCN3CCOCC3)c3nc4ccccc4nc23)cc1OC`, which Potency is on record?
**A.** The Potency was “inactive”.

**Q.** With `COc1ccc2c(c1OC)C(=O)O[C@H]2[C@@H]1c2cc3c(cc2CCN1C)OCO3` as the molecule, how does the Potency read?
**A.** Its Potency is “inactive”.

**Q.** With `O=C1C(=O)c2cccc3cccc1c23` as the molecule, how does the Potency read?
**A.** The Potency was inconclusive: 6.51 µM [activator, single point].

**Q.** For `Cc1cc(N(CCCl)CCCl)ccc1/C=N/N=C(\N)c1cnccn1`, which Potency is on record?
**A.** Its Potency is inconclusive: 18.4 µM [activator, single point].

**Q.** For `Cc1ccc(S(=O)(=O)NP(=O)(Oc2ccccc2)Oc2ccccc2)cc1`, which Potency is on record?
**A.** The Potency was “inactive”.

**Q.** With `COC(=O)C1=C(c2ccc(F)cc2OCc2ccccc2)C[C@@H]2CC[C@H]1N2C(=O)NCc1ccc(N(C)C)cc1` as the molecule, how does the Potency read?
**A.** The Potency was inconclusive: 0.326 µM [activator, full curve, poor fit].

**Q.** With `CCOc1cc2c(cc1OCC)-n1cccc1C(c1ccc(OC)cc1)NC2` (stereo not drawn) as the molecule, how does the Potency read?
**A.** The Potency was inconclusive: 10.3 µM [activator, partial curve].

**Q.** With `COC(=O)C1=C(c2cccc(OCc3ccccc3)c2)C[C@@H]2CC[C@H]1N2C(=O)NNCc1ccccc1` as the molecule, how does the Potency read?
**A.** Its Potency is inconclusive: 23.1 µM [activator, single point].

**Q.** Which Potency does the source give for `CN1CC[C@@]2(C)c3cc(O)ccc3N(C)C2O1` (stereo partly drawn) here?
**A.** The Potency was inconclusive: 20.6 µM [activator, single point].

**Q.** With `CCOC(=O)c1ccc2c(c1)n(Cc1ccccc1)c(C)[n+]2CC` as the molecule, how does the Potency read?
**A.** Its Potency is inconclusive: 5.62 µM [activator, single point].

**Q.** For `COC(=O)C1=C(c2ccc(OC(F)(F)F)cc2)C[C@@H]2CC[C@H]1N2C(=O)NCc1cccc2ccccc12`, which re-replication activation is on record?
**A.** The re-replication activation was inactive: 0.167% [at 9.22 µM].

**Q.** For `N#CC(C#N)=C(C#N)c1ccc(Nc2ccccc2)cc1`, which Potency is on record?
**A.** The Potency was inconclusive: 18.4 µM [activator, single point].

**Q.** Which Potency does the source give for `CN(c1ccc(OCC(=O)N2CCN(C/C=C/c3ccccc3)CC2)cc1)S(=O)(=O)c1cccs1` here?
**A.** The Potency was inconclusive: 14.6 µM [activator, partial curve, poor fit].

**Q.** For `CN(C(=O)Oc1ccc(F)cc1)c1ccccc1`, which Potency is on record?
**A.** The Potency was inconclusive: 6.51 µM [activator, single point].

**Q.** With `CN(C)CCN(CC1CCCN(Cc2ccccc2F)C1)C(=O)Cc1ccc(F)c(F)c1` (stereo not drawn) as the molecule, how does the re-replication activation read?
**A.** Its re-replication activation is inconclusive: 93% [activator].

**Q.** Which Potency does the source give for `Cc1cc2c(C(F)(F)F)cc(=O)oc2c2c1NCCC2` here?
**A.** Its Potency is inconclusive: 23.1 µM [activator, single point].

**Q.** Which Potency does the source give for `CN(C)P(=O)(N(C)C)N1CC1` here?
**A.** The Potency was “inactive”.

**Q.** With `O=Cc1cn(Cc2ccccc2F)c2ccccc12` as the molecule, how does the Potency read?
**A.** Its Potency is inconclusive: 16.4 µM [activator, partial curve].

**Q.** For `Fc1ccccc1CNCCc1c[nH]c2ccccc12`, which Potency is on record?
**A.** The Potency was inconclusive: 5.17 µM [activator, single point].

**Q.** With `Cc1c(C(=O)N2CCC3(CC2)OCCO3)oc2ccc(S(=O)(=O)N3CCOCC3)cc12` as the molecule, how does the Potency read?
**A.** Its Potency is “inactive”.

**Q.** For `CCN(CC)C(=O)c1ccc(NC(=O)c2cccc(C(F)(F)F)c2)cc1`, which Potency is on record?
**A.** Its Potency is inconclusive: 35.5 µM [activator, single point].

**Q.** With `Cc1ccccc1N1C(=O)NC(=O)/C(=C\c2cc(Br)c(N3CCOCC3)o2)C1=O` as the molecule, how does the Potency read?
**A.** The Potency was inconclusive: 20.6 µM [activator, single point].

**Q.** For `COc1ccc(CN2Cc3cnnn3-c3ccccc3C2c2ccccc2)cc1` (stereo not drawn), which Potency is on record?
**A.** Its Potency is inconclusive: 25.9 µM [activator, single point].

**Q.** With `N=c1c2c(n(Cc3ccc(Cl)cc3Cl)c3c1CCC3)CCCC2` as the molecule, how does the Potency read?
**A.** The Potency was inconclusive: 6.51 µM [activator, partial curve, poor fit].

**Q.** For `CCc1nnc(NC(=O)CSc2ccc(-c3ccco3)nn2)s1`, which Potency is on record?
**A.** The Potency was inconclusive: 18.4 µM [activator, single point].

**Q.** For `CC(=O)[C@H]1CC[C@H]2[C@@H]3CC[C@H]4C[C@H](O)CC[C@]4(C)[C@H]3C(=O)C[C@]12C`, which Potency is on record?
**A.** The Potency was “inactive”.

**Q.** With `COC(=O)C1=C(c2ccc(OC(F)(F)F)cc2)C[C@@H]2CC[C@H]1N2C(=O)NCCOc1ccccc1Cl` as the molecule, how does the Potency read?
**A.** The Potency was “inactive”.

**Q.** For `CNCCC(Oc1ccc(C(F)(F)F)cc1)c1ccccc1` (stereo not drawn), which Potency is on record?
**A.** The Potency was “inactive and inconclusive: 20 µM [activator, single point] and inconclusive: 29.1 µM [activator, single point]”.

**Q.** For `CN1CCN(c2ccc3c(c2)S(=O)(=O)c2ccccc2C3=O)CC1`, which Potency is on record?
**A.** Its Potency is “inactive”.

**Q.** With `C[C@]12CCC(=O)C=C1CCC1C2CC[C@@]2(C)C1CC[C@]2(C)O` (stereo partly drawn) as the molecule, how does the Potency read?
**A.** The Potency was inconclusive: 32.6 µM [activator, partial curve, poor fit].

**Q.** For `COc1ccc(OCCn2cc(/C=C(\C#N)C(=O)NCc3ccco3)c3ccccc32)cc1`, which Potency is on record?
**A.** Its Potency is inconclusive: 18.4 µM [activator, single point].

**Q.** With `C[C@]12CC[C@@H]3c4cc(O)c(O)cc4CC[C@H]3[C@@H]1CC[C@@H]2O` as the molecule, how does the Potency read?
**A.** Its Potency is inconclusive: 14.1 µM [activator, single point].

**Q.** Which Potency does the source give for `O=C(NCCCn1ccnc1)C(Cl)(Cl)Cl` here?
**A.** The Potency was inconclusive: 5.8 µM [activator, full curve, poor fit].

**Q.** For `O=[N+]([O-])c1ccc(N2CCNCC2)cc1N1CCCCC1`, which Potency is on record?
**A.** The Potency was inconclusive: 0.731 µM [activator, full curve, poor fit].

**Q.** With `C/C=C(\C)C(=O)N[C@@H](c1ccccc1)[C@@H](O)C(=O)O[C@H]1C[C@@]2(O)[C@@H](OC(=O)c3ccccc3)C3[C@](C)(C(=O)[C@H](OC(C)=O)C(=C1C)C2(C)C)[C@H](O)C[C@H]1OC[C@@]31OC(C)=O` (stereo partly drawn) as the molecule, how does the Potency read?
**A.** Its Potency is active: 1.46 µM.

**Q.** With `C[C@]12C/C(=C/O)C(=O)C[C@@H]1CC[C@@H]1[C@@H]2CC[C@@]2(C)[C@H]1CC[C@]2(C)O` as the molecule, how does the Potency read?
**A.** The Potency was inconclusive: 33.5 µM [activator, single point].

**Q.** With `O=C1C2CCCN2C(c2cccnc2)N1c1cccc(Cl)c1` (stereo not drawn) as the molecule, how does the Potency read?
**A.** Its Potency is inconclusive: 29.1 µM [activator, single point].

**Q.** With `CCOC(=O)Cn1cc(C=C2C(=O)N(C)C(=O)N(C)C2=O)c2ccccc21` as the molecule, how does the Potency read?
**A.** Its Potency is inconclusive: 4.61 µM [activator, partial curve, poor fit].

**Q.** For `CCCCCn1c(=O)c(C(=O)NCc2ccccn2)c(O)c2ccccc21`, which Potency is on record?
**A.** Its Potency is inconclusive: 16.4 µM [activator, partial curve, poor fit].

**Q.** For `CC1=NN=C(c2ccc(N)cc2)c2cc3c(cc2C1)OCO3`, which Potency is on record?
**A.** The Potency was “inactive”.

**Q.** For `COc1ccc2cc1Oc1ccc(cc1)C[C@H]1c3cc(c(OC)cc3CCN1C)Oc1c(OC)c(OC)cc3c1[C@H](C2)N(C)CC3`, which Potency is on record?
**A.** The Potency was inconclusive: 6.51 µM [activator, single point].

**Q.** For `COc1ccc(C(=O)N2Cc3cnnn3-c3ccccc3C2C#N)cc1` (stereo not drawn), which Potency is on record?
**A.** Its Potency is inconclusive: 1.3 µM [activator, partial curve, poor fit].

**Q.** With `O=C(O)c1cc[c]([Hg][Cl])cc1` as the molecule, how does the Potency read?
**A.** The Potency was “inactive”.

**Q.** Which Potency does the source give for `CCC(C)OC(=O)c1c(N)n(Cc2cccs2)c2nc3ccccc3nc12` (stereo not drawn) here?
**A.** The Potency was inconclusive: 18.4 µM [activator, single point].

**Q.** With `CO[C@@H](COC(N)=O)C1=C(N2CC2)C(=O)C(C)=C(N2CC2)C1=O` as the molecule, how does the Potency read?
**A.** Its Potency is inconclusive: 0.0119 µM [activator, full curve].

**Q.** Which Potency does the source give for `O=C1NC(=S)N(c2ccccc2F)C(=O)/C1=C\c1cccs1` here?
**A.** The Potency was inconclusive: 31.6 µM [activator, single point].

**Q.** Which Potency does the source give for `CCC1(CC(C)c2ccccc2)C(=O)NC(=O)NC1=O` (stereo not drawn) here?
**A.** Its Potency is “inactive”.

**Q.** Which Potency does the source give for `CCOC(=O)C1(CCc2ccccc2)CCN(Cc2cccc3c2OCO3)CC1` here?
**A.** The Potency was inconclusive: 18.4 µM [activator, single point].

**Q.** With `COc1cccc(OC)c1C1=NCC(=O)Nc2c1oc1ccc(Br)cc21` as the molecule, how does the Potency read?
**A.** Its Potency is active: 0.651 µM.

**Q.** For `COc1ccc(S(=O)(=O)Nc2ccc3c(c2)CC(=O)N([C@@H](C)CO)C[C@H](C)[C@@H](CN(C)S(=O)(=O)c2ccc(F)cc2)O3)cc1`, which Potency is on record?
**A.** The Potency was inconclusive: 0.651 µM [activator, partial curve, poor fit].

**Q.** Which Potency does the source give for `CCCCn1c(O)c(C(=O)/C=C/c2ccc3c(c2)OCO3)c(=O)[nH]c1=O` here?
**A.** Its Potency is inconclusive: 3.26 µM [activator, partial curve, poor fit].

**Q.** With `Nc1nc(F)nc2c1ncn2[C@@H]1O[C@H](CO)[C@@H](O)[C@H]1O` as the molecule, how does the Potency read?
**A.** Its Potency is inconclusive: 20.6 µM [activator, partial curve, poor fit].

**Q.** With `CN(C)c1ccc(/C=C/C=C2/C(=O)NC(=O)N(c3ccccc3)C2=O)cc1` as the molecule, how does the Potency read?
**A.** Its Potency is inconclusive: 14.6 µM [activator, single point].

**Q.** Which Potency does the source give for `CCOP(=S)(OCC)Oc1ccc2c(C)c(Cl)c(=O)oc2c1` here?
**A.** The Potency was inconclusive: 25.9 µM [activator, single point].
